This passage reports cell number change and AC50 results from PubChem BioAssay AID2685 (National Center for Advancing Translational Sciences (NCATS), 2010).

The other results are listed elsewhere or left out. Shown are side measurements of this screen, not its main read-out; they come without a call. Most of these compounds were active or inconclusive in the main read-out, so they are no random draw. Potencies come from curve fits of mixed quality, noted in brackets.

This assay in a line: qHTS Assay for Lipid Storage Modulators in Drosophila S3 Cells.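 On cell number change: cells counted by Cell Tracker Red CMTPX staining in the red channel.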 Particulars: BODIPY lipid droplet fluorescence, 18-24 h; for cell number change: measured here: cell count max response, cells fed with added oleic acid. In a few lines:
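Drosophila S3 cells loaded with oleic acid (400 uM, as added) and compounds at several concentrations; lipid droplets imaged by 488-nm laser-scanning cytometry, 500–530 nm intensity and object ratio to cell channel. Percent activity normalized to 20 uM Triacsin C.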

[1] abbreviates: measured here: cell number channel AC50, cells fed with added oleic acid.
Where [2] appears, read: measured here: lipid fluorescence (Fed channel) AC50, cells fed with added oleic acid.

As for `Cc1cccc(N2CCN(C(c3ccncc3)c3nnnn3C(C)(C)C)CC2)c1C` (centres undefined), the cell number change stood at 38.2%. In addition, the AC50 under setting [1] was 5.17 µM [rising, partial curve]. In addition, under setting [2], the AC50 is 29.1 µM [rising, single point].

Consider `COc1cc2[nH]c(C(=O)NCc3ccccc3)cc2c(OC)c1OC`, for which the cell number change came to 55.6%. Moreover, the AC50 under setting [1] is 11.6 µM [rising, partial curve].

For `CCC(N=c1cc(-c2ccc(OC)c(OC)c2)oc2ccc(C)cc12)C(=O)O` (centres undefined), the cell number change was found to be 5.19%. Besides, the AC50 under setting [2] was 29.1 µM [falling, single point].

As to `COC(=O)c1ccc(NC(=O)c2ccccc2)o1`, the cell number change is -39.8%. Besides, the AC50 under setting [1] was 18.4 µM [falling, single point]. Also, under setting [2], the AC50 was 16.4 µM [falling, single point].

`COc1ccc(/C=C/C(=O)NCC(=O)N/N=C(/C)c2ccc(Cl)cc2)cc1`: the cell number change was 24.8%. In addition, under setting [2], the AC50 was 2.31 µM [rising, full curve, poor fit].

Take `CN1CCN(C(=O)c2ccc3c(c2)NC(=O)/C(=C/c2ccccc2)S3)CC1`: the cell number change was -15.3%.

For `Cc1ccc(C)c(S(=O)(=O)N2CCN(C(=O)CCc3c[nH]c4ccccc34)CC2)c1`, the cell number change is -6.61%. Moreover, the AC50 under setting [1] was 1.84 µM [rising, partial curve, poor fit]. Besides, under setting [2], the half-maximal activity concentration (AC50) is 3.26 µM [rising, single point].

On to `COc1cc(/C=N/Nc2nn3cnnc3c3ccccc23)ccc1O`, for which the cell number change was -16.6%. Further, under setting [2], the AC50 was 29.1 µM [falling, single point].

With `O=C1C=C(c2ccc(F)cc2OCc2ccccc2)C[C@@H](c2ccc(Cl)cc2)C1`, the cell number change worked out at 19.2%.

With `CCOC(=O)C1CCN(C(=O)COc2ccc(Cl)cc2Cl)CC1`, the cell number change is 0.338%. Besides, under setting [2], the AC50 is 0.291 µM [rising, full curve].

Turning to `CCOC(=O)N1CCC(NC(=O)C(CC(C)C)NC(=O)C2CCCCC2)CC1` (centres undefined), the cell number change was found to be 0.674%. In addition, the AC50 under setting [2] was 7.31 µM [falling, single point].

`Cc1ccc(C)c(S(=O)(=O)NCC(c2ccco2)N2CCc3ccccc3C2)c1` (centres undefined): the cell number change was 1.99%. Moreover, the half-maximal activity concentration (AC50) under setting [2] was 0.58 µM [falling, full curve].

As to `CC(=O)c1cccc(NC(=O)Nc2ccc3c(c2)CCC3)c1`, the cell number change is 32.4%.

With `COc1cc(C(=O)O)nc2ccc([N+](=O)[O-])cc12`, the cell number change is 5.08%. Moreover, the half-maximal activity concentration (AC50) under setting [2] was 0.0651 µM [rising, single point].

On to `O=C(NCSC1=NCCS1)c1ccccc1`, for which the cell number change worked out at 1.55%. The AC50 under setting [2] is 29.1 µM [rising, single point].

For the molecule `Cc1c(NC(=O)c2ccc(N3C(=O)C4C5C=CC(C5)C4C3=O)cc2)c(=O)n(-c2ccccc2)n1C` (centres undefined), the cell number change is 5.71%. In addition, under setting [2], the AC50 is 0.731 µM [falling, single point].

For `COc1ccccc1OCCOc1ccc(/C=C2\C(=N)N3N=C(S(C)(=O)=O)SC3=NC2=O)cc1`, the cell number change is -8.7%. The AC50 under setting [2] is 0.651 µM [rising, single point].

Regarding `CCCn1c2ccccc2c2cnn(CC(=O)O)c(=O)c21`, the cell number change was 17.1%.

`CCOc1ccc(N(CC(=O)NCCc2ccccc2)S(=O)(=O)c2ccccc2)cc1`: the cell number change was 1.9%. Moreover, the concentration at half-maximal activity (AC50) under setting [2] is 29.1 µM [rising, partial curve, poor fit].

Regarding `O=C(NCCCn1ccnc1)c1ccc(Br)s1`, the cell number change is 29.7%. For the same molecule, the AC50 under setting [1] is 3.66 µM [rising, full curve, poor fit].

`COc1ccc(C2=NS(=O)(=O)N(C)C(C(=O)N(C)Cc3ccccc3)=C2)cc1OC`: the cell number change was found to be 2.02%. Besides, the AC50 under setting [2] was 32.6 µM [falling, single point].

As to `COc1ccc(-n2c(SCC(=O)NCc3ccco3)nnc2-c2c[nH]c3ccccc23)cc1`, under setting [1], the AC50 is 0.92 µM [rising, partial curve].

`Cn1c(N)c(C(=O)CSc2nnc(C3CC3)n2Cc2ccccc2)c(=O)[nH]c1=O`: the cell number change worked out at 15.9%.

For `O=S(=O)(N1CCCCC1)N1CCN(CC(O)COc2ccc3cc(Br)ccc3c2)CC1` (centres undefined), the cell number change is -76.6%. The half-maximal activity concentration (AC50) under setting [1] was 23.1 µM [falling, single point].

As to `COc1ccc(N(C(=O)c2ccccc2C)S(=O)(=O)c2cccs2)cc1`, the cell number change was -23.3%. For the same molecule, under setting [2], the AC50 was 3.26 µM [falling, full curve].

Regarding `COc1ccc(C(=O)C2CCN(C(=O)c3ccc(C)cc3)CC2)cc1`, the cell number change was -21.2%. The AC50 under setting [2] was 29.1 µM [falling, single point].

Consider `COC(CNS(=O)(=O)c1ccc(S(=O)(=O)N2CCCC2)cc1)OC`, for which the cell number change was 30.9%. The AC50 under setting [1] was 4.11 µM [rising, partial curve].

Turning to `COc1ccccc1NC(C)C(=O)Nc1ccc(C(C)=O)cc1` (centres undefined), the cell number change was determined as 16.5%. For the same molecule, the AC50 under setting [1] is 6.51 µM [rising, single point]. Moreover, the AC50 under setting [2] was 2.91 µM [falling, full curve, poor fit].

In the case of `CCOC(=O)Cn1nc(NC(=O)c2ccc3c(c2)OCO3)cc1C`, the cell number change turned out to be 20%. Further, the AC50 under setting [2] is 29.1 µM [falling, single point].

In the case of `Cc1[nH]n(-c2ccccc2)c(=O)c1C=Nc1ccc(S(=O)(=O)N=C(N)N)cc1`, the cell number change turned out to be 39.3%. Further, the AC50 under setting [1] was 29.1 µM [rising, single point]. Moreover, under setting [2], the AC50 is 29.1 µM [rising, single point].

As for `CC(C)C(C(=O)NCc1ccco1)N(C(=O)CNS(=O)(=O)c1ccccc1)c1ccccc1` (centres undefined), the cell number change is -19%. Further, the half-maximal activity concentration (AC50) under setting [2] is 1.84 µM [falling, single point].

In the case of `COc1ccc(CNC(=O)CCCn2nc(C)c3c(C)n(-c4ccc(C)cc4)nc3c2=O)cc1`, the cell number change worked out at 2.99%. Besides, the AC50 under setting [2] was 29.1 µM [falling, single point].

Take `CCCCNC(=O)COC(=O)c1cc(S(=O)(=O)N2CCCCCC2)ccc1OC`: under setting [1], the AC50 is 3.66 µM [rising, single point].

Take `CCn1nc(NC(=O)c2ccco2)c2cc3ccc(C)cc3nc21`: the cell number change was 16%. In addition, the concentration at half-maximal activity (AC50) under setting [1] was 0.411 µM [rising, partial curve]. Under setting [2], the AC50 was 2.59 µM [rising, partial curve].

Turning to `CCN(C(=O)c1ccc(NC(=O)c2ccco2)cc1)c1ccccc1`, the cell number change was 2.89%. Moreover, the concentration at half-maximal activity (AC50) under setting [2] is 16.4 µM [rising, partial curve, poor fit].

On to `O=C(Nc1ccc([N+](=O)[O-])cc1)N1CCCCCC1`, for which the cell number change was determined as 12.6%. For the same molecule, the AC50 under setting [2] is 5.62 µM [falling, single point].

Turning to `COc1ccc(-c2nnc(SCC(=O)NC(=O)NCc3ccco3)o2)cc1`, the AC50 under setting [2] was 1.64 µM [falling, partial curve].

Turning to `Cc1ccc(C)c(NC(=O)c2ccc(OCc3c(C)noc3C)cc2)c1`, the cell number change is -46.6%.

As for `CC(=O)C(=Cc1cn(-c2ccccc2)nc1-c1ccccc1)C(C)=O`, the cell number change stood at 38.9%. Besides, the concentration at half-maximal activity (AC50) under setting [1] is 5.8 µM [rising, full curve]. Besides, the AC50 under setting [2] is 5.8 µM [rising, single point].

For `COc1ccc(OC)c(S(=O)(=O)N2CCC(C(=O)NCc3ccccc3OC)CC2)c1`, the AC50 under setting [1] was 6.51 µM [rising, single point].

Consider `Clc1ccc(OCc2nnnn2-c2ccccc2)cc1`, for which the cell number change is -15.8%.

Take `C/C=C\C(=O)Nc1cccc(C2=NOC3(C2)C[C@@H](C(N)=O)N(C(=O)C2(C)CC2)C3)c1` (some centres undefined): the cell number change worked out at 27.2%. For the same molecule, under setting [2], the AC50 is 14.6 µM [rising, partial curve, poor fit].

As to `Cc1ccccc1C(=O)c1c[nH]c(C(=O)NCCc2ccccn2)c1`, the cell number change came out at 42.6%.

Consider `O=C(Cn1cnc2cc([N+](=O)[O-])ccc2c1=O)NC1CCS(=O)(=O)C1` (centres undefined), for which the cell number change was -7.06%. For the same molecule, the AC50 under setting [2] was 0.651 µM [falling, partial curve, poor fit].

With `Cc1c(C(=O)O)sc(S(=O)(=O)N2CCN(C(=O)Cc3ccc(F)cc3)CC2)c1C(=O)O`, the cell number change is -12.1%. Further, under setting [2], the AC50 is 6.51 µM [rising, single point].

With `Cc1cc(S(=O)(=O)N2CCN(c3ccccc3O)CC2)c(C)s1`, the cell number change was found to be 23.8%. The AC50 under setting [1] was 0.517 µM [rising, single point]. Besides, under setting [2], the AC50 was 0.259 µM [falling, full curve].

On to `O=C(NCCCN1CCCC1)c1ccc2c(c1)N(Cc1ccccc1F)C(=O)c1ccccc1S2=O` (centres undefined), for which the cell number change turned out to be 5.5%.

As for `CCOc1cc(C2C(C(=O)c3ccco3)=C(O)C(=O)N2CCc2ccccc2)ccc1O` (centres undefined), the cell number change is 16.1%.

Turning to `COc1ccc(C(=O)NCC(=O)OCC(=O)N2N=C(c3ccc(Cl)cc3)CC2c2ccco2)cc1OC` (centres undefined), under setting [1], the AC50 was 0.82 µM [rising, partial curve, poor fit].

Regarding `O=C1C2C3C=CC(C3)C2C(=O)N1CNc1ccccc1` (centres undefined), the cell number change is -4.14%. In addition, the AC50 under setting [2] is 0.116 µM [falling, full curve, poor fit].

On to `CCOc1ccc(/C=N/NC(=O)C(OC)c2ccccc2)cc1` (centres undefined), for which the cell number change was -4.19%. Moreover, the AC50 under setting [2] was 1.16 µM [rising, single point].

Regarding `Cc1nc(C)c(CC(=O)N/N=C/c2ccc(O)cc2)c(=O)[nH]1`, the cell number change was -1.18%. The AC50 under setting [2] is 29.1 µM [falling, single point].

Take `Cc1ccc2[nH]cc(/C=C/c3cc[n+](C)cc3)c2c1`: the cell number change was determined as 16.5%. Moreover, under setting [2], the AC50 was 18.4 µM [falling, single point].

In the case of `CC(OC(=O)c1cccc(O)c1)C(=O)N(C)Cc1ccccc1` (centres undefined), the cell number change was found to be 0.602%. Also, under setting [2], the AC50 was 23.1 µM [falling, single point].

For the molecule `O=C(Nc1ccc2c(c1)OCCO2)c1ccoc1`, the cell number change was 20.8%. In addition, the AC50 under setting [1] is 0.517 µM [rising, full curve, poor fit].

With `CS(=O)(=O)Nc1cccc(-c2cnc3ccccc3n2)c1`, the cell number change was -10%. Further, under setting [2], the AC50 is 1.03 µM [rising, partial curve].

As to `Cn1nc(C(F)(F)F)c(-c2ccc(F)cc2)c1NC(=O)c1cccnc1`, the cell number change was -8.97%. Further, the AC50 under setting [2] is 3.26 µM [rising, partial curve, poor fit].

As for `O=C(CCC1CCCCC1)NC1=NCCS1`, the cell number change was -1.96%. Under setting [2], the half-maximal activity concentration (AC50) is 16.4 µM [rising, single point].

Turning to `Cc1ccc(C(=O)N/C(=C\c2ccc(Br)cc2)c2nc(=S)[nH][nH]2)cc1`, the cell number change is -35.3%. Moreover, the concentration at half-maximal activity (AC50) under setting [1] is 14.6 µM [falling, single point]. In addition, the AC50 under setting [2] was 29.1 µM [falling, single point].

`COc1cccc(/C=N/n2c(COc3ccccc3)n[nH]c2=S)c1`: the cell number change was -41.9%. Also, the half-maximal activity concentration (AC50) under setting [1] is 29.1 µM [falling, single point].

One may read the AC50 as the midpoint of the concentration-response curve, whichever way the signal moves.
